Source: PubChem BioAssay AID2685 (National Center for Advancing Translational Sciences (NCATS), 2010)
This is one part of the list. Shown are side measurements of this screen, not its main read-out; they come without a call. Most of these compounds were active or inconclusive in the main read-out, so they are no random draw. Potencies come from curve fits of mixed quality, noted in brackets.

Test: qHTS Assay for Lipid Storage Modulators in Drosophila S3 Cells;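 on cell number change: cells counted by Cell Tracker Red CMTPX staining in the red channel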
Conditions: BODIPY lipid droplet fluorescence, 18-24 h; for cell number change: measured here: cell count max response, cells fed with added oleic acid
In short: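 Drosophila S3 cells got compounds at several concentrations plus oleic acid (400 uM solution). Laser-scanning cytometry with 488 nm excitation read lipid droplets at 500-530 nm and cells at 575-640 nm. Percent activity was relative to 20 uM Triacsin C.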

[1] = measured here: cell number channel AC50, cells fed with added oleic acid
[2] = measured here: lipid fluorescence (Fed channel) AC50, cells fed with added oleic acid

CC(=O)c1ccc2c(c1)OCCOCCOCCOCCOCCO2
cell number change: -31% | AC50 [1]: 23.1 µM [falling, single point] | AC50 [2]: 29.1 µM [falling, single point]

Cc1ccc(NC(=O)CCn2cccc2)cc1Cl
cell number change: 0.711% | AC50 [2]: 3.26 µM [falling, partial curve]

O=C(NCCN1CCN(c2ccccc2)CC1)Nc1ccccc1Cl
cell number change: -2.63% | AC50 [2]: 2.31 µM [rising, partial curve, poor fit]

O=C(/C=C/c1ccccc1[N+](=O)[O-])NCc1ccccc1Cl
cell number change: 28.9%

COc1ccccc1N1CCN(c2ccc(-c3ccccc3)nn2)CC1
cell number change: -25%

S=C(NCCc1ccc(Cl)cc1)NCc1ccco1
cell number change: 28%

CC(C)OC(=O)/C(=C\c1cccc2ccccc12)NC(=O)c1ccccc1
cell number change: -13.3%

COc1ccc(C2=NCC(CSc3nnnn3C)S2)cc1 (stereo not drawn)
cell number change: -17.8% | AC50 [2]: 29.1 µM [rising, single point]

CC(C)(C)c1ccc(/C=C2/SC(N3CCCC3)=NC2=O)cc1
cell number change: -43.4% | AC50 [1]: 16.4 µM [falling, partial curve, poor fit] | AC50 [2]: 18.4 µM [falling, single point]

Cc1ccc(Cn2c(=N)n(CC(O)c3ccco3)c3ccccc32)cc1 (stereo not drawn)
AC50 [2]: 29.1 µM [falling, partial curve]

Cc1ccc(N2CCN(CC(O)COC3CCCCC3)CC2)cc1 (stereo not drawn)
cell number change: -5.78% | AC50 [1]: 4.11 µM [falling, single point]

COc1ccc(-n2c(SCC(=O)Nc3sc4c(c3C#N)CCCC4)nnc2-c2ccc(O)cc2)cc1
cell number change: 9.22% | AC50 [1]: 0.0651 µM [rising, full curve, poor fit]

O=C(c1ccccc1NS(=O)(=O)c1ccc(Br)cc1)N1CCOCC1
cell number change: -25.2%

CCC1(c2ccc(Cl)cc2)NC(=O)N(Cc2ccc(C(=O)OC)cc2)C1=O (stereo not drawn)
cell number change: -22% | AC50 [2]: 29.1 µM [falling, single point]

O=[N+]([O-])c1cccc(CN2CCCCCC2)c1
cell number change: -16.9% | AC50 [2]: 29.1 µM [falling, single point]

COc1cccc(-n2c(SCC(=O)NCCc3ccccc3)nnc2-c2ccoc2C)c1
AC50 [1]: 6.51 µM [rising, single point] | AC50 [2]: 2.06 µM [rising, full curve]

COC(=O)c1nc(-c2ccccc2)oc1N1CCOCC1
cell number change: 30.5% | AC50 [1]: 6.51 µM [rising, full curve, poor fit] | AC50 [2]: 7.31 µM [rising, partial curve]

CCC(=O)N1CCN(c2ccc(NC(=O)c3ccco3)cc2Cl)CC1
cell number change: -20.4% | AC50 [2]: 0.58 µM [falling, single point]
